The supplement of paper PMC3334620
In all, about 33,000 sequences were measured (“E-score (-0.5 to 0.5)”: median about -0.0034, highest 2% from about 0.25 on). The list shows a part of the results.

Molecular target: T1, Yap3 (UniProt P38749)
T1 sequence: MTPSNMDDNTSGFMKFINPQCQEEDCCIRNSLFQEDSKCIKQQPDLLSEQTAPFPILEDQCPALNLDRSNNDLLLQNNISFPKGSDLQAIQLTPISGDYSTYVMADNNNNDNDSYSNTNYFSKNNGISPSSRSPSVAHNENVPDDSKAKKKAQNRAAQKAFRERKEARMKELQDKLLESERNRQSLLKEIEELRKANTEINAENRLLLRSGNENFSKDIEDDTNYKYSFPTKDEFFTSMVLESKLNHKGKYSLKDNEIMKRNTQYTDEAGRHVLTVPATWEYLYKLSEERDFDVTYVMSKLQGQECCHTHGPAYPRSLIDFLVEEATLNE
Experiment: PBM E-score (8-mer binding enrichment) (E-score (-0.5 to 0.5)); higher = stronger / more preferred TF binding
Details: protein concentration: 100 nM; construct: GST-full length
Outline: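 Using PURExpress in vitro transcription/translation, GST-tagged yeast transcription factors were made in full-length or DNA-binding-domain form. These were applied at about 100-200 nM to double-stranded universal all-10-mer Agilent arrays, and bound protein was detected with fluorescent anti-GST. Scans were normalised with masliner before the Universal PBM Analysis Suite assigned E-scores to ungapped eight-base words pooled with their reverse complements.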

Sequence	PBM E-score
CGGTGCCA	-0.26
AACTATCA	0.216
GTATTACA	0.291
CTGCGCGC	0.195
ACCTGAGC	-0.0503
ACGATTAA	0.0578
ACTCAGAT	0.0286
AGATGGCA	0.0107
TCCGCGCA	-0.0788
AAAGGTGG	0.0659
ACGGCCTA	-0.0243
AACAAGAA	0.253
AGTGGATG	-0.00012
ACAGACCC	-0.168
TACCTGAA	0.0994
GTTCAGAA	0.0372
AACATTCG	-0.0486
AATTACCG	0.162
AAAGCCCG	-0.164
CTCCCTTC	-0.317
CTCTTGAC	-0.066
GTTTTGTA	0.211
GACGCGAC	-0.0383
AGCAAGAT	0.14
AACGGGTC	-0.231

6 entries from above, reformatted.
Sequence,PBM E-score
AAAGCCCG,-0.164
CTCCCTTC,-0.317
CTCTTGAC,-0.066
GTTTTGTA,0.211
GACGCGAC,-0.0383
AGCAAGAT,0.14

More results.

Sequence	PBM E-score
CATTCGGC	-0.0237
GGCTGACA	0.022
AGCGGTCA	-0.0767
TCTATTCA	0.222
AAGCCGAG	-0.00369
ACCCGACT	0.0959
GCGAATCC	0.0544
TACTTCTA	0.16
AATACAGA	0.139
ACGAGAGG	-0.0888
CGTACATA	0.17
ACGAAGCG	-0.188
CACCACTG	-0.0386
ATCGACGA	-0.0934
CCGACTAC	-0.208
CAGGTCCA	-0.166
CTTGCGCC	-0.0687
GTTCGTGA	-0.165
AAGAGGCC	-0.154
AGCGCCCT	-0.171
GGTAGACC	-0.0755
GACCGACC	-0.101
GTGACCGA	-0.132
CAAAGTGG	-0.17
AGTACGTA	0.241

Reprinted at random: 2 entries already listed, in no set order.
Sequence	PBM E-score
ATCGACGA	-0.0934
ACGAGAGG	-0.0888

Carrying on:

Sequence	PBM E-score
ACCTTCGC	-0.149
CAGCGGAG	-0.0541
GACCGGAC	-0.136
CTCTAATC	-0.0693
CACGAGTC	-0.0731
CAAACGAG	-0.029
ATATTGAA	0.124
AATCATAG	0.147
CAACAGCA	0.0814
ACCCAAAC	0.0961
CCAGGGAC	-0.181
ATGTCTTC	-0.215
ATCCCCAC	0.0332
CTAGTGAA	-0.106
ATTAAGGA	0.0554
ATTCTTTG	0.175
GCTGATGA	0.0583
AGCTGCGA	-0.0657
GCCATTCA	-0.00615
CGCCAAGC	-0.221
ACCTCGCA	-0.00872
AACAGCAA	0.238
AACCGTGA	0.0686
ACACACGC	0.112
CTCAGAAA	0.145

Sequence	PBM E-score
CTTACCCC	-0.159
ACTTGTTG	-0.123
CAGACTAA	-0.0227
AAGGAGTG	-0.0362
ATGTACCG	-0.00608
ACCAATAT	0.254
CGGCTCTA	-0.067
AGTACGCA	-0.203
AAGAGACG	-0.0232
CGGCCATA	-0.106
ACGCAATG	-0.0418
ATGTAAAG	0.0929
AGGTCTTA	-0.12
CAGAGTCG	-0.0868
CAGCATAG	-0.0432
ATAGCACC	-0.0773
CGCCATAG	-0.0105
GAGACCTC	-0.189
CTCGGCGC	0.00143
CACGGTGA	0.0265
GTCATTCA	0.103
GCAAAACA	0.132
GTACGTAC	0.0261
ACCCGTAA	0.0292
CGCGGGGA	0.0543

Sequence	PBM E-score
CCCTCGAC	-0.118
AATACTAT	0.239
CGTCGGCC	-0.0998
GAGCCTTA	-0.0398
GACTTGGC	-0.224
ATGACAAG	-0.0324
GTCTGCTA	0.0968
CCCCCTCG	-0.356
CAAGACCA	-0.212
AAGGAGGC	-0.179
ATAGAATA	0.203
CATGACGC	0.0683
ACTTCTGC	0.0493
ATTATGGG	0.0706
CCTGTGTA	0.133
CTGCAACA	0.0395
ATCTATCA	0.0468
AAGATATA	0.175
AGAGATAC	0.0854
AGAGCAAA	-0.104
CCAAGAGG	-0.219
CAGGAGAG	-0.122
AGGGTGTC	-0.112
GACATGTC	-0.0418
ATTATCTA	0.241

Sequence	PBM E-score
AAAAAACA	0.315
ACCCGGAC	-0.329
GTTATGCA	0.0493
GGCTACCC	-0.312
GGATCCGA	-0.141
ATCATACC	0.232
GAAGGCGA	-0.13
CCCGTGTA	-0.111
ATATACTA	0.306
CAGAGCGG	-0.0832
CCTGCCTA	-0.114
AGTTGTTG	-0.048
AAGAAACG	0.0274
TCAGTCGA	0.147
CCTGAGAA	-0.136
AGAGCTTA	-0.0123
ATCTCATA	-0.0161
CTACCATC	-0.0454
GAGGCCGC	-0.216
CCCGGAAC	-0.0811
AACTGTAA	0.219
GCTGCACC	-0.228
CGCATTAC	0.121
CGGGCTTA	-0.028
ACCTCATC	-0.0769

Sequence	PBM E-score
CGGACCCG	-0.139
AGTATATC	0.0292
ATGTAGGA	-0.138
ATCGACAT	0.0988
CGGTTTTC	0.0443
CGTAACTA	0.129
AAAAGAGC	0.0797
CGTTCGGC	-0.0105
CACTGAAA	0.0595
GACCGTAC	-0.195
ATGTCCAC	-0.0741
ATCCTATA	0.26
GTGGGACA	-0.0961
CAAGTCCC	-0.284
ACGTCACC	0.0166
CGATAATC	0.0223
AGCGGGTG	-0.202
GCAAGGGA	-0.126
ACCTTCAC	0.00082
ATATTATC	0.149
GATTACAC	0.113
CTAGGCCC	-0.284
AGTCGCTA	-0.158
CATAGCCA	0.0605
AGCGAGCA	-0.0316

Sequence	PBM E-score
GTCGCCTA	-0.114
CGAGCCAA	0.105
CCACGGAC	-0.304
AAATCAAC	0.121
CTCGCTCC	-0.0424
ACACCAGG	-0.237
AGGTATTC	0.116
AATACGCA	0.112
ACGCGGGC	-0.0455
GCAGTTAC	0.177
CATTATAG	0.02
CACTCTAA	0.0283
GGGAATTA	0.216
GACGCCTC	0.0387
ACCGTTAC	0.0653
AAGAAGGC	-0.171
CGTAGCTC	0.154
CATTTAAG	0.0358
GTAAAGAA	0.153
CGAATGAC	0.222
CCTCATCA	0.0365
TCGATTCA	0.152
CCCACGCC	-0.256
ATACGAAT	0.0837
GTTACAGA	-0.0601

A portion of the results above, for reference:
Sequence	PBM E-score
CGTAACTA	0.129
AAAAGAGC	0.0797
CGTTCGGC	-0.0105
CACTGAAA	0.0595

(next part)

Sequence	PBM E-score
ATCTCTCG	-0.0155
GACCTTGC	-0.191
AAGTTTAT	0.172
AGGTGCAC	0.0822
GCATAGCA	-0.0494
AATATAGA	0.191
AAACTCCT	-0.324
ACAGAAAA	0.198
AGATCATA	0.203
CCGCAAGA	-0.0321
AAAGGCAA	0.254
ATTCGCAA	0.171
CACTACTA	0.0953
CACCCATG	-0.014
GTATCCCA	-0.0472
GGGGTCTA	-0.117
AACTGTTA	0.223
CCTGCGTA	-0.194
AAGGTTAT	0.00255
CAAAGCTG	0.0236
AACCGAGT	-0.197
ATATGAGC	0.0205
GGCATACC	-0.0877
CAATAAGC	-0.0566
AGTAGTAC	0.22

Sequence	PBM E-score
ATGAGACA	0.0872
GACCGAAC	-0.0488
GCATCGCC	-0.239
AGTGCGTG	0.0026
ACACGTCG	-0.239
AATGGTTC	0.062
GAGTGGCC	-0.0813
GGCAAAGA	0.183
AAGGTAAG	0.0708
TATGCGCA	-0.00704
CATTTGGC	-0.0439
GTGACTTA	0.074
ACGCCTGA	-0.0833
ACTTTCCT	0.0313
CGCAAGCC	0.0375
GACGGCAA	0.0761
ATGACTTC	0.0321
CCCAATTC	0.249
AGTAAGGA	0.244
TCATGGCA	0.0155
TAACCCAA	0.199
CGTCGAGC	-0.00084
ACGCGACC	-0.151
CAATCGCG	0.0859
GGCAGGGA	-0.161

Sequence	PBM E-score
CCTAAGCA	-0.0486
GCGTGACA	-0.016
CTGCTATA	0.103
ACCATGTC	0.0148
CGGTTTTA	-0.106
CATTCCCC	-0.0111
CAATCGAG	-0.173
GAAATGCA	0.189
GCGCTGCC	-0.293
ATCACGGG	-0.0316
AAGCTCTA	0.0753
CGACGGCA	-0.0914
GACATGAC	-0.0923
GGTAATTA	0.221
CCGAATTC	0.14
GGAAGTAA	0.111
CGCTGGAA	-0.151
GACATTCA	0.00974
AGCAGTCC	-0.201
CGCGCTGA	0.0303
ATAGATAC	0.173
GTACACGA	0.0891
CCGTATGA	0.0641
TTACTGAA	0.128
GAAAAGAC	0.166

Sequence	PBM E-score
CGCCTTAC	-0.0859
TCTGCTCA	0.00765
CAAAAGGG	-0.0725
AGGCCCTG	-0.162
GAAAAAAA	0.287
CCGGTTTC	-0.00052
CTAAGACA	0.0522
GACAAATC	0.175
CTAGACGC	-0.19
CTAAAGAG	0.00356
AACCCGCG	0.183
CTAAACAG	-0.00506
CGGTGACA	0.0776
AACATGTG	0.192
CATAGCAC	0.0592
CCCCGACG	-0.0828
CCGTACCA	0.156
ATTACTTA	0.257
CTTATTTC	0.251
CGTTACCA	0.145
CCACCGGG	-0.362
CATTTAAA	0.246
AGGCCAGA	-0.0392
CCGGTTTA	0.0317
GTCATAAC	0.0863

Sequence	PBM E-score
CATCACTA	-0.0162
AAAAGTGC	0.0748
GAATCATA	0.153
GCACCGAC	0.00219
GATTTACA	0.202
AGTTTTTG	0.224
GGATTAGA	0.0149
AGATAACG	0.247
GAAGCTGA	-0.0626
CACTACGA	0.00399
GCCTCCCA	-0.251
GAACGACA	0.131
GGCAGGAC	-0.211
ACGTTGCT	0.109
CACTGTAC	0.0111
CATAATGC	0.114
CACATGCG	0.0891
ACATCATA	0.194
CCATCCCC	-0.274
AGATTATG	0.129
AATTAGCC	0.0688
AGCGTGGG	-0.0987
CCGGTCCC	-0.233
ATTACGAG	0.228
TCGTCACA	0.013

Sequence	PBM E-score
AGAAAAAC	-0.00619
CTCTTAGA	-0.0363
CCTCTTCA	-0.19
ATAAGTAA	0.236
ATAAATAA	0.307
CAATGGAA	0.166
GTGAGCCA	0.00058
GCCCCTGA	-0.138
AACTTGCA	0.108
ACGGTTTG	-0.111
CGGGATCC	0.0776
CTTTACTA	0.22
CCGTGAAA	0.0883
CCACTTTC	0.0563
AACTAAAT	0.102
ACAGGCCC	-0.291
AATCACCA	0.203
CACTAGCA	-0.019
ATGGGCTG	-0.183
